Laboratory results reported in patent US20220242846A1, “ISOINDOLINONE COMPOUNDS” (Monte Rosa Therapeutics AG, priority 2019, published 2022).
Some entries share one result that the patent states for a list of compounds.

The chains behind the UniProt entries cited, without tags or fusion partners. Where a name states a change or a piece, a line headed by the entry shows the natural chain unless it says otherwise.
UniProt P15170, whole entry: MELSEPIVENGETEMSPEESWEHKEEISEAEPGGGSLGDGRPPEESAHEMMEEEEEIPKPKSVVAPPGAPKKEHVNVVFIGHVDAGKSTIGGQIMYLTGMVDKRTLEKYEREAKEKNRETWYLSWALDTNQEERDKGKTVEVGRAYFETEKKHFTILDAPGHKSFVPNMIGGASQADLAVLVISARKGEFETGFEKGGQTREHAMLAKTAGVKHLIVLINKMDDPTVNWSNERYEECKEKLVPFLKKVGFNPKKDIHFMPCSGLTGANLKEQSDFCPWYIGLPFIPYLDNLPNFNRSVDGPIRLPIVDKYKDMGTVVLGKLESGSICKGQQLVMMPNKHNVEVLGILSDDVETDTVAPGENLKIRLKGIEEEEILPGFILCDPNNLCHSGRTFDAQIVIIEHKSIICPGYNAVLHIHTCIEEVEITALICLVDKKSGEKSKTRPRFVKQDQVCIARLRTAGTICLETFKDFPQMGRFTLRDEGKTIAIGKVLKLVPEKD
UniProt Q96SW2: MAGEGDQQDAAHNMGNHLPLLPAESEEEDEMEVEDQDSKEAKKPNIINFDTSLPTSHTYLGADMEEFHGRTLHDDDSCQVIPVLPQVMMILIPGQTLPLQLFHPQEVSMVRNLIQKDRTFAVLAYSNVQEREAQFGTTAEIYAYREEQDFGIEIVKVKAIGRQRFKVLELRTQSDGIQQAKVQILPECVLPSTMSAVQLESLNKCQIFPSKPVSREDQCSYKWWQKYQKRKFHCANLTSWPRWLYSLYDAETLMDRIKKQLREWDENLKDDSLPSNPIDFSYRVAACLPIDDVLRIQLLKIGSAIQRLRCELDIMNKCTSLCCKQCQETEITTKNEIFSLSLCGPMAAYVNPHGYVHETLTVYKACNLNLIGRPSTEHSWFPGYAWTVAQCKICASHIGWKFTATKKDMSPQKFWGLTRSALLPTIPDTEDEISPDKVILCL

target: GSPT1 (Homo sapiens, UniProt P15170+Q96SW2); experiment: Immunofluorescence assay for GSPT1 degradation in CAL-51 cells; type: cell-based; design: CAL-51 cells were purchased from DSMZ (cat. Number ACC302); endogenous in cells; host or cells: CAL-51 (DSMZ ACC302); conditions: compound treatment 6 hours
Experimental: CAL-51 cells were purchased from DSMZ (cat. Number ACC302), sub-cultured in 90% Dulbecco's MEM (4.5 g/L glucose, Gibco 11965) +10% heat inactivated FBS (BioConcept, 2-01F136I) and incubated at 37° C., 5% CO2. For the assay, imaging microtiterplate Cell Carrier 96 Ultra (Perkin Elmer 6055302) were pre-coated with Fibronectin (Sigma F085, 300 at 0.2 μg/ml) in PBS (1000, Gibco 14190) for 45 min at room temperature, rinsed with PBS and CAL-51 cells (30K cells/well) were plated and let to adhere overnight. Cells were treated with compounds typically using a serial dilution ranging from 30 μM to 0.1 nM for 6 hours. Compounds were stored at 10 mM DMSO stocks. Vehicle (DMSO), positive (CC-885, 10 μM) and rescue controls (positive control plus 0.2 μM bortezomib) were also included at this stage. Cells were subsequently rinsed with PBS and fixed in 10% Formalin solution (50 μl, Sigma HT5011)) for 20 mins at room temperature. Following three consecutive PBS washes (100 μl), cells were permeabilized in 0.1% Triton X-100 in PBS (Sigma 93443, 50 μl) for 15 mins at room temperature. Following three further PBS washes, 50 μl blocking buffer (1% BSA, Sigma A4503, in PBS) was added for 45 min for signal-to-noise reduction. Primary antibody (human GSPT1, Sigma HPA052488) was diluted in blocking buffer (dil. 1/300, 35 μl/well) and incubated with the cells overnight at 4° C. After three PBS washes, Alexa-fluor 488 coupled secondary antibodies (Invitrogen, A32731, dil. 1/1000), Alexa-fluor 647-Phalloïdin (Invitrogen, A22287, dil. 1/200) and DAPI (Thermo, #62248, dil.1/1000) were diluted in blocking buffer and incubated with the samples for 2 hours at room temperature. After three final PBS washes, samples were conserved in 1000 PBS in the dark, until measurement. Image acquisition was performed on the Operetta High-Content Imager (Perkin-Elmer). Fluorescence intensity of Alexa-Fluor 488 (GSPT1), Alexa-Fluor 647 (Actin) and DAPI (Nucleus) were measured. For the determination of GSPT1 DC50 values, a custom algorithm implemented in the PerkinElmer image analysis software Harmony-Acapella® was developed. After user-defined setting of adjustment parameters, the analysis was run identically without human intervention for all image fields. DAPI staining of the nuclei was used to determine the location of cells using standard nuclei detection modules. Segmentation artifacts were removed by threshold-based filters for area, roundness and intensity. The outline of the cells was determined analogously from the sum of the normalized, smoothed DAPI and Actin channel, starting from each nucleus. The Alexa-Fluor 488 (GSPT1) signal intensity in each cell was finally measured, in order to obtain a Mean intensity per cell. GSPT1 degradation (DC50) was calculated after normalization to controls and data import in CDD vault Database, using non-linear regression. Activity for GSPT1 Degradation Table 3 assigns each compound a code indicating the ability for GSPT1 degradation: A, B or C. According to the code, A represents a DC50 value of ≤100 nM, B represents a DC50 value >100 nM and ≤300 nM and C represents a DC50 value of >300 nM.

Q: How did the DC50 turn out when `O=C1CCC(N2Cc3ccc(CNC(=O)Nc4ccc(C(F)(F)F)cc4)cc3C2=O)C(=O)N1` (stereo not shown) [Compound 41] was run?
A: The DC50 was no more than 300 nM.

Q: With `Cc1ccc(NC(=O)NCc2ccc3c(c2)C(=O)N(C2CCC(=O)NC2=O)C3)cc1C` (stereo not shown) [Compound 68] as the compound, how does the DC50 read?
A: The DC50 was no more than 300 nM.

Q: `CN(C)c1cccc(NC(=O)NCc2ccc3c(c2)C(=O)N(C2CCC(=O)NC2=O)C3)c1` (stereo not shown) [Compound 89] was tested. Which DC50 did it give?
A: Its DC50 is no more than 300 nM.

Q: `O=C1CCC(N2Cc3ccc(CNC(=O)Nc4cccc(C(F)F)c4)cc3C2=O)C(=O)N1` (stereo not shown) [Compound 106] was tested. Which DC50 did it give?
A: Its DC50 is no more than 300 nM.

Q: With `Cn1nccc1-c1cccc(NC(=O)NCc2ccc3c(c2)C(=O)N(C2CCC(=O)NC2=O)C3)c1` (stereo not shown) [Compound 115] as the compound, how does the DC50 read?
A: Its DC50 is no more than 300 nM.

Q: With `O=C1CCC(N2Cc3ccc(CNC(=O)Nc4ccc(F)c(Cl)c4)cc3C2=O)C(=O)N1` (stereo not shown) [Compound 42] as the compound, how does the DC50 read?
A: The DC50 was no more than 300 nM.

Q: Which DC50 does the source give for `Cc1ccc(NC(=O)NCc2ccc3c(c2)C(=O)N(C2CCC(=O)NC2=O)C3)cc1CN1CCOCC1` (stereo not shown) [Compound 101, 1-((2-(2,6-dioxopiperidin-3-yl)-3-oxoisoindolin-5-yl)methyl)-3-(4-methyl-3-(morpholinomethyl)phenyl)urea] here?
A: The DC50 was no more than 300 nM.

Q: With `Cc1c(Cl)cc(NC(=O)NCc2ccc3c(c2)C(=O)N(C2CCC(=O)NC2=O)C3)cc1CN1CC2(COC2)C1` (stereo not shown) [Compound 109] as the compound, how does the DC50 read?
A: Its DC50 is no more than 300 nM.

Q: Which DC50 does the source give for `Cc1c(Cl)cc(NC(=O)NCc2ccc3c(c2)C(=O)N(C2CCC(=O)NC2=O)C3)cc1C12CC1CN(C)C2` (stereo not shown) [Compound 155] here?
A: Its DC50 is no more than 300 nM.

Q: `Cc1cc(C)c(NC(=O)NCc2ccc3c(c2)C(=O)N(C2CCC(=O)NC2=O)C3)cc1Cl` (stereo not shown) [Compound 85] was tested. Which DC50 did it give?
A: The DC50 was no more than 300 nM.
